According to the supplement of paper PMC11348887:
Structures can show the parent of a compound that is named as a salt. Some of the results follow. Most entries show no effect beyond the scatter of the controls.

Key:
Settings in all cases: 5 µM; treatment: days 7-14 after plating, readout day 21
[1] = system: hPSC-derived cortical neurons (WA09); test: nucleus area z-score vs screen plate; higher = larger nuclei (more mature)
[2] = system: hPSC-derived cortical neurons (WA09); test: total neurite length per nucleus (MAP2) z-score; higher = more neurite growth
[3] = system: hPSC-derived cortical neurons (WA09); test: nucleus roundness z-score vs screen plate; higher = rounder nuclei (more mature)
[4] = system: hPSC-derived cortical neurons (WA09); test: KCl-induced FOS+/EGR-1+ double-positive nuclei fraction z-score (KCl minus unstimulated); higher = stronger activity-induced IEG response

Compound: O=C(Nc1cccc(Cl)c1)Nc1ncc(CCNc2ncnc3ccsc23)s1 [SNS-314 Mesylate]
- nucleus area z-score [1]: 0.224
- total neurite length per nucleus (z-score) [2]: 0.339
- nucleus roundness z-score [3]: 0.32
- KCl-induced FOS+/EGR-1+ double-positive nuclei fraction z-score [4]: -0.214

Compound: Cc1c(-c2ccc(O)cc2)n(Cc2ccc(OCCN3CCCCCC3)cc2)c2ccc(O)cc12 [Bazedoxifene HCl]
- nucleus area z-score [1]: -7.52
- total neurite length per nucleus (z-score) [2]: -3.06
- nucleus roundness z-score [3]: -3.83
- KCl-induced FOS+/EGR-1+ double-positive nuclei fraction z-score [4]: -2.19

Compound: CCN(CC)CCNC(=O)c1cc(Cl)c(N)cc1OC [MetoclopraMide HCl]
- nucleus area z-score [1]: 1.37
- total neurite length per nucleus (z-score) [2]: 0.217
- nucleus roundness z-score [3]: -0.385
- KCl-induced FOS+/EGR-1+ double-positive nuclei fraction z-score [4]: -0.217

Compound: COC(=O)N[C@@H](C)CNc1nccc(-c2cn(C(C)C)nc2-c2cc(Cl)cc(NS(C)(=O)=O)c2F)n1
- nucleus area z-score [1]: 0.632
- total neurite length per nucleus (z-score) [2]: -0.939
- nucleus roundness z-score [3]: -2.33
- KCl-induced FOS+/EGR-1+ double-positive nuclei fraction z-score [4]: -0.592

Compound: COC(=O)Nc1nc2cc([S+]([O-])c3ccccc3)ccc2[nH]1 (stereo not drawn) [Oxfendazole]
- nucleus area z-score [1]: -0.433
- total neurite length per nucleus (z-score) [2]: 0.909
- nucleus roundness z-score [3]: 2.29
- KCl-induced FOS+/EGR-1+ double-positive nuclei fraction z-score [4]: 1.55

Compound: O=C1Nc2ccccc2/C1=C1/Nc2ccccc2C1=O [Indirubin]
- nucleus area z-score [1]: -0.926
- total neurite length per nucleus (z-score) [2]: 0.302
- nucleus roundness z-score [3]: 0.0354
- KCl-induced FOS+/EGR-1+ double-positive nuclei fraction z-score [4]: 0.33

Compound: CCOCC(O)COc1ccc(NC(=O)CC[S+](C)C)cc1 (stereo not drawn) [Suplatast Tosylate]
- nucleus area z-score [1]: 0.244
- total neurite length per nucleus (z-score) [2]: -0.0826
- nucleus roundness z-score [3]: 0.48
- KCl-induced FOS+/EGR-1+ double-positive nuclei fraction z-score [4]: -0.0978

Compound: N[C@@H](Cc1cc(I)c(Oc2ccc(O)c(I)c2)c(I)c1)C(=O)O [Liothyronine Sodium]
- nucleus area z-score [1]: -0.341
- total neurite length per nucleus (z-score) [2]: 0.797
- nucleus roundness z-score [3]: 0.422
- KCl-induced FOS+/EGR-1+ double-positive nuclei fraction z-score [4]: 0.504

Compound: Cn1cc(-c2ccc3nnc(C(F)(F)c4ccc5ncccc5c4)n3n2)cn1
- nucleus area z-score [1]: 2.24
- total neurite length per nucleus (z-score) [2]: 1.52
- nucleus roundness z-score [3]: 1.03
- KCl-induced FOS+/EGR-1+ double-positive nuclei fraction z-score [4]: 1.45

Compound: NC(=O)c1cccnc1 [Nicotinamide (Vitamin B3)]
- nucleus area z-score [1]: 0.443
- total neurite length per nucleus (z-score) [2]: -0.964
- nucleus roundness z-score [3]: -1.22
- KCl-induced FOS+/EGR-1+ double-positive nuclei fraction z-score [4]: 0.128

Compound: O=C1c2ccc(Nc3ccc(F)cc3F)cc2CCc2ccc(OC[C@H](O)CO)cc21 [Skepinone-L]
- nucleus area z-score [1]: 0.777
- total neurite length per nucleus (z-score) [2]: -0.179
- nucleus roundness z-score [3]: 0.656
- KCl-induced FOS+/EGR-1+ double-positive nuclei fraction z-score [4]: -0.107

Compound: C=CC(=O)Nc1ccc2ncnc(Nc3cccc(Br)c3)c2c1
- nucleus area z-score [1]: 0.185
- total neurite length per nucleus (z-score) [2]: -0.299
- nucleus roundness z-score [3]: -0.741
- KCl-induced FOS+/EGR-1+ double-positive nuclei fraction z-score [4]: -0.0454

Compound: CNCc1cc(-c2ccccc2F)n(S(=O)(=O)c2cccnc2)c1
- nucleus area z-score [1]: 0.71
- total neurite length per nucleus (z-score) [2]: 0.641
- nucleus roundness z-score [3]: -0.353
- KCl-induced FOS+/EGR-1+ double-positive nuclei fraction z-score [4]: 0.0107

Compound: CCCCC(=O)N(Cc1ccc(-c2ccccc2-c2nnn[nH]2)cc1)[C@H](C(=O)O)C(C)C.CCOC(=O)[C@H](C)C[C@@H](Cc1ccc(-c2ccccc2)cc1)NC(=O)CCC(=O)O
- nucleus area z-score [1]: 0.266
- total neurite length per nucleus (z-score) [2]: 0.207
- nucleus roundness z-score [3]: 0.473
- KCl-induced FOS+/EGR-1+ double-positive nuclei fraction z-score [4]: 0.265

Compound: CC(C)[C@H]1CC[C@H](C(=O)N[C@H](Cc2ccccc2)C(=O)O)CC1 [Nateglinide]
- nucleus area z-score [1]: 1.18
- total neurite length per nucleus (z-score) [2]: 0.826
- nucleus roundness z-score [3]: 0.104
- KCl-induced FOS+/EGR-1+ double-positive nuclei fraction z-score [4]: 0.858

Compound: CC(C(O)c1ccc(O)cc1)N1CCC(Cc2ccccc2)CC1 (stereo not drawn) [Ifenprodil Tartrate]
- nucleus area z-score [1]: -3.15
- total neurite length per nucleus (z-score) [2]: -3.12
- nucleus roundness z-score [3]: -2.32
- KCl-induced FOS+/EGR-1+ double-positive nuclei fraction z-score [4]: -1.45

Compound: Nc1nc2c(ncn2COCCO)c(=O)[nH]1 [Aciclovir]
- nucleus area z-score [1]: -0.209
- total neurite length per nucleus (z-score) [2]: 0.0446
- nucleus roundness z-score [3]: 0.268
- KCl-induced FOS+/EGR-1+ double-positive nuclei fraction z-score [4]: -0.513

Compound: CC(=O)N[C@@H](CCC(N)=O)C(=O)O [Aceglutamide]
- nucleus area z-score [1]: 0.213
- total neurite length per nucleus (z-score) [2]: 0.538
- nucleus roundness z-score [3]: 0.143
- KCl-induced FOS+/EGR-1+ double-positive nuclei fraction z-score [4]: 1.28

Compound: COc1cc2c(cc1OC)CN(CCc1ccc(NC(=O)c3cccc4c(=O)c5cccc(OC)c5[nH]c34)cc1)CC2
- nucleus area z-score [1]: -12.4
- total neurite length per nucleus (z-score) [2]: -4.64
- nucleus roundness z-score [3]: -2.01
- KCl-induced FOS+/EGR-1+ double-positive nuclei fraction z-score [4]: -1.09

Compound: Cn1ccnc1S [Methimazole]
- nucleus area z-score [1]: 0.677
- total neurite length per nucleus (z-score) [2]: 0.0518
- nucleus roundness z-score [3]: -0.141
- KCl-induced FOS+/EGR-1+ double-positive nuclei fraction z-score [4]: 0.127

Compound: O=C1O[C@H]([C@@H](O)CO)C(O)=C1O [Vitamin C]
- nucleus area z-score [1]: -0.242
- total neurite length per nucleus (z-score) [2]: 1.24
- nucleus roundness z-score [3]: 1.72
- KCl-induced FOS+/EGR-1+ double-positive nuclei fraction z-score [4]: 2.91

Compound: Cc1cc(NC(=O)C2=C(O)c3ccccc3S(=O)(=O)N2C)no1 [Isoxicam]
- nucleus area z-score [1]: 0.611
- total neurite length per nucleus (z-score) [2]: 0.411
- nucleus roundness z-score [3]: -0.0401
- KCl-induced FOS+/EGR-1+ double-positive nuclei fraction z-score [4]: 0.198

Compound: COc1ccc(-c2ccc3ncc4c(c3c2)n(-c2ccc(N3CCNCC3)c(C(F)(F)F)c2)c(=O)n4C)cn1
- nucleus area z-score [1]: -11.3
- total neurite length per nucleus (z-score) [2]: -3.98
- nucleus roundness z-score [3]: 4.95
- KCl-induced FOS+/EGR-1+ double-positive nuclei fraction z-score [4]: -0.479

Compound: O=C(NNc1nc2cc(F)ccc2n2cccc12)c1cnccn1
- nucleus area z-score [1]: -3.82
- total neurite length per nucleus (z-score) [2]: 0.684
- nucleus roundness z-score [3]: -0.806
- KCl-induced FOS+/EGR-1+ double-positive nuclei fraction z-score [4]: -8.94

Compound: COc1cc2ncnc(Oc3ccc(CC(=O)Nc4cnn(C(C)C)c4)cc3)c2cc1OC
- nucleus area z-score [1]: 0.465
- total neurite length per nucleus (z-score) [2]: -0.118
- nucleus roundness z-score [3]: -0.211
- KCl-induced FOS+/EGR-1+ double-positive nuclei fraction z-score [4]: -0.274

Compound: CN1CCCC(n2nc(Cc3ccc(Cl)cc3)c3ccccc3c2=O)CC1 (stereo not drawn) [Azelastine HCl]
- nucleus area z-score [1]: 0.0468
- total neurite length per nucleus (z-score) [2]: -0.294
- nucleus roundness z-score [3]: 0.0988
- KCl-induced FOS+/EGR-1+ double-positive nuclei fraction z-score [4]: -0.722

Compound: Cc1ccc(N(CC2=NCCN2)c2cccc(O)c2)cc1 [Phentolamine Mesylate]
- nucleus area z-score [1]: 0.373
- total neurite length per nucleus (z-score) [2]: 0.273
- nucleus roundness z-score [3]: 0.326
- KCl-induced FOS+/EGR-1+ double-positive nuclei fraction z-score [4]: 0.242
